Test results taken from patent US7390630B1, “Method of identifying a compound that selectively inhibits cytokine-stimulated T cell induced production of TNF-alpha by monocytes” (Mathilda and Terence Kennedy Institute of Rheumatology Trust, priority 1999, dated 2008).
At least one structure is not confirmed: it was looked up by name or label, or the drawing left a doubt.

Tested on: spontaneous TNFα production in total RA synovial membrane cultures
Assay: Spontaneous TNFα production in RA synovial membrane cultures
Type: cell-based, Human
Settings: increasing concentrations, 48 h, cultures from eight individuals

O=c1cc(N2CCOCC2)oc2c(-c3ccccc3)cccc12 [LY294002]
effect on spontaneous TNFα production in total RA synovial membrane cultures: dose-dependently enhanced
